PubChem BioAssay AID743454 | Peter MacCallum Cancer Centre, 2014

- Purpose: 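Genes whose loss kills vorinostat-resistant colon cancer cells under vorinostat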 (primary screen)
- Cell system: human HCT116-VR colon cancer cells, selected for vorinostat resistance
- Knock-down reagent: siRNA pool against human genes, 40 nM siRNA pool
- Time to read-out: vorinostat for 24 h, read-out about 72 h after transfection
- Conditions: vorinostat at 2.5 µM final
- Measured: 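Two measures, CellTiter-Fluor viability and luminescent caspase 3/7 activity, each as fold change against same-plate mock wells, mean of duplicates, then screen-wide robust z-score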
- Scale: viability robust z-score: higher = more viable cells than screen typical; caspase robust z-score: higher = more caspase 3/7 activity than screen typical
- Hit rule: 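a knock-down is a hit when classed RV1 or RV2 for lowered viability, or CA1 or CA2 for caspase activation; those lethal without drug were dropped; hits were retested singly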
The deposit covers about 18,000 reagents; this is a part drawn at random. In the full data, 450 (2.5%) got an active call. 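Single biological run; no consistent viability z cut-off exists, so the class columns, not z-scores, define the calls.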

| gene knocked down | viability hit class | caspase hit class | viability robust z-score | caspase robust z-score | activity call |
| --- | --- | --- | --- | --- | --- |
| F2R | no change | no change | 1.2 | -0.17 | inactive |
| IRF3 | no change | no change | 1.31 | -0.7 | inactive |
| PDAP1 | no change | no change | 2.5 | 0.03 | inactive |
| CASP1 | no change | no change | 0.68 | -0.36 | inactive |
| TMEM101 | no change | no change | 0.28 | -0.75 | inactive |
| FCGBP | no change | no change | 0.45 | -0.13 | inactive |
| NHEJ1 | no change | no change | 0.61 | 0.5 | inactive |
| FSTL4 | no change | no change | 1.07 | 1.14 | inactive |
| RBP4 | no change | no change | -2.58 | 2.96 | inactive |
| ARHGEF17 | no change | no change | 1.04 | 0.3 | inactive |
| ZAP70 | no change | no change | -0.98 | 1.55 | inactive |
| HTR1F | no change | no change | 0.18 | -0.44 | inactive |
| CSGALNACT1 | no change | no change | -1.94 | 1.33 | inactive |
| ALOX15B | no change | no change | -0.44 | -0.26 | inactive |
| ZC3HC1 | no change | no change | -0.31 | -0.3 | inactive |
| SULF2 | no change | no change | -0.68 | -0.76 | inactive |
| DDX3Y | no change | no change | 0.51 | 0.33 | inactive |
| LINC02903 | no change | no change | -1.98 | 0.46 | inactive |
| MST1R | no change | no change | -1.92 | -0.75 | inactive |
| ABHD4 | no change | no change | -0.18 | -0.94 | inactive |
| POLR2J | no change | CA2 (caspase activation) | -2.98 | 6.06 | active |
| ZNF548 | no change | no change | 1.26 | 4.53 | inactive |
| HERC1 | no change | no change | -0.9 | -1.04 | inactive |
| CTNND1 | no change | no change | -0.42 | 0.03 | inactive |
| LINC00207 | no change | no change | -1.28 | -0.72 | inactive |
| RXYLT1 | no change | no change | -0.58 | -0.81 | inactive |
| LRRC18 | no change | no change | 1.04 | 3.06 | inactive |
| MTMR1 | no change | no change | 0.62 | 1.88 | inactive |
| HSPBP1 | no change | no change | 1.32 | -0.62 | inactive |
| OXGR1 | no change | no change | -1.91 | 1.69 | inactive |
| RPS18 | no change | no change | -4.17 | -0.56 | inactive |
| SPICE1 | no change | no change | -0.56 | 3.89 | inactive |

In a second layout: entries from further up
DDX3Y — viability hit class = no change; caspase hit class = no change; viability robust z-score = 0.51; caspase robust z-score = 0.33; activity call = inactive
LINC02903 — viability hit class = no change; caspase hit class = no change; viability robust z-score = -1.98; caspase robust z-score = 0.46; activity call = inactive
MST1R — viability hit class = no change; caspase hit class = no change; viability robust z-score = -1.92; caspase robust z-score = -0.75; activity call = inactive
ABHD4 — viability hit class = no change; caspase hit class = no change; viability robust z-score = -0.18; caspase robust z-score = -0.94; activity call = inactive
POLR2J — viability hit class = no change; caspase hit class = CA2 (caspase activation); viability robust z-score = -2.98; caspase robust z-score = 6.06; activity call = active
ZNF548 — viability hit class = no change; caspase hit class = no change; viability robust z-score = 1.26; caspase robust z-score = 4.53; activity call = inactive
HERC1 — viability hit class = no change; caspase hit class = no change; viability robust z-score = -0.9; caspase robust z-score = -1.04; activity call = inactive
CTNND1 — viability hit class = no change; caspase hit class = no change; viability robust z-score = -0.42; caspase robust z-score = 0.03; activity call = inactive
LINC00207 — viability hit class = no change; caspase hit class = no change; viability robust z-score = -1.28; caspase robust z-score = -0.72; activity call = inactive

Next entries:
| gene knocked down | viability hit class | caspase hit class | viability robust z-score | caspase robust z-score | activity call |
| --- | --- | --- | --- | --- | --- |
| PTPN14 | no change | no change | 1.42 | 0.15 | inactive |
| ZNF582 | no change | no change | -0.1 | 1.81 | inactive |
| ICE2 | no change | no change | 1.88 | -0.09 | inactive |
| GPALPP1 | no change | no change | 0.86 | -0.86 | inactive |
| HTT | no change | no change | 0.78 | -0.63 | inactive |
| MANEA | no change | no change | -0.21 | -0.62 | inactive |
| ELSPBP1 | no change | no change | -0.64 | 0.24 | inactive |
| PRM1 | no change | no change | 0.02 | 4.35 | inactive |
| OPN3 | no change | no change | 0.52 | -0.93 | inactive |
| PYGB | no change | no change | 1.36 | 3.88 | inactive |
| EDARADD | no change | no change | 0.82 | 0.05 | inactive |
| SPRY4 | no change | no change | 0.3 | 1.92 | inactive |
| OR6Q1 | no change | no change | 0.24 | -0.5 | inactive |
| FMO5 | no change | no change | 0.84 | 0.03 | inactive |
| CTNNAL1 | no change | no change | 0.56 | -0.69 | inactive |
| PIGY | no change | no change | 0.87 | -0.77 | inactive |
| SLC24A3 | no change | no change | -0.47 | 1.58 | inactive |
| TMEM200A | no change | no change | 0.14 | 1.01 | inactive |
| ALX1 | no change | no change | 0.95 | -1.34 | inactive |
| KLK9 | no change | no change | -0.28 | -0.86 | inactive |
| UBE2S | no change | no change | -0.72 | 1.85 | inactive |
| HPCAL1 | no change | CA1 (caspase activation) | -0.03 | 5.54 | active |
| GTSF1 | no change | no change | 1.02 | 4.64 | inactive |
| SAMD12 | no change | no change | 1.64 | -0.66 | inactive |
| CCDC82 | no change | no change | 0.59 | 1.64 | inactive |
